{"sequences": {"note": "The chains behind the UniProt entries cited, without tags or fusion partners.", "UniProt Q0JBA9, entry or part of it": "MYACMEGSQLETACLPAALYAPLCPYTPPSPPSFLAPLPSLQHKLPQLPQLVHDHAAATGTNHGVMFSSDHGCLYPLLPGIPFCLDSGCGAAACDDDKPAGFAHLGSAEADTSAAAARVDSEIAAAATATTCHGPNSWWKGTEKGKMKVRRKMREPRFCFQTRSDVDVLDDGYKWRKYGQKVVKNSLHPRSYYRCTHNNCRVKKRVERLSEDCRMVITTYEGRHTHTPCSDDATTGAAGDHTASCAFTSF"}, "source": "paper PMC7819943", "about": "“Rice protein-binding microarrays: a tool to detect cis-acting elements near promoter regions in rice”", "note": "The other results are listed elsewhere or left out.", "data": [{"molecular_target": "OsWRKY34 (Oryza sativa, UniProt Q0JBA9 1-250)", "assay": "protein-binding microarray (RPBM); PBS, 2% BSA, 51.3 ng/ul salmon testes DNA, 50 uM zinc acetate, 200 nM TF, 25 C, 1 h; high values mean tight binding", "details": "protein: recombinant; tags: N-terminal polyhistidine and DsRed monomer fusion (pET32a); label: CyDye5-dUTP incorporated in the synthesized complementary strand; 3' TTTTT single-stranded linker to array surface; dsDNA, one strand shown", "how_it_was_run": "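Transcription factors, each fused N-terminally to a polyhistidine tag and DsRed, were expressed in E. coli BL21-CodonPlus and purified on Ni–NTA. A custom Agilent array was made double-stranded by primer extension with Cy5-dUTP and blocked with 2% BSA. It was incubated with 200 nM protein in PBS, 2% BSA, salmon testes DNA and 50 µM zinc acetate at 25 °C for 1 h, then washed. The binding signal is per-feature fluorescence intensity (arbitrary units) read on an Axon 4000B scanner.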", "values": [{"sequence": "ATCTGTCAGTGCCACATCACCACCACACAACCGCAAAGAACGGAGTCACCTAGTGCAG", "binding signal": "9250 fluorescence intensity (a.u.)"}, {"sequence": "GGTTTGGTGGTTGGTTTTCGGGTTCTGACTAGGGTTTGGTCGGAGTCACCTAGTGCAG", "binding signal": "14000 fluorescence intensity (a.u.)"}, {"sequence": "ATAACATATTTATTTACTTAGTATATCTTACTGATTTTAGCGGAGTCACCTAGTGCAG", "binding signal": "8040 fluorescence intensity (a.u.)"}, {"sequence": "GATTCGATTCGACTCGACTCTCCCGCCTGATTCTTTTTTTCGGAGTCACCTAGTGCAG", "binding signal": "8130 fluorescence intensity (a.u.)"}, {"sequence": "CAATGCACTTGCACAGTCCCTTCTGATTTCTTCGCGAATCCGGAGTCACCTAGTGCAG", "binding signal": "8160 fluorescence intensity (a.u.)"}, {"sequence": "TCCAGGAATTTTAACAATCGTGCACAAACATTTTATAACACGGAGTCACCTAGTGCAG", "binding signal": "8360 fluorescence intensity (a.u.)"}, {"sequence": "CCATGCACATTTCGATACATCGTCACTTAGTTAATTCAATCGGAGTCACCTAGTGCAG", "binding signal": "8580 fluorescence intensity (a.u.)"}, {"sequence": "GCGTGGGTTGGGCTGGCAAATACTACACCGTGGGCTTCCACGGAGTCACCTAGTGCAG", "binding signal": "14300 fluorescence intensity (a.u.)"}, {"sequence": "GCGTCTGGGCTTATTTTTTCGACGGTCACTGCACCTGAATCGGAGTCACCTAGTGCAG", "binding signal": "8990 fluorescence intensity (a.u.)"}, {"sequence": "GCGGCGGTGGGGATGGGGATAGGGCGGCGGCGGCGGATGGCGGAGTCACCTAGTGCAG", "binding signal": "13600 fluorescence intensity (a.u.)"}, {"sequence": "CCGCCGAGCTCCTTATACACCATGCATTCTCGCCGGCAATCGGAGTCACCTAGTGCAG", "binding signal": "12300 fluorescence intensity (a.u.)"}, {"sequence": "GAGCTGTAGTATCATCATGTAATAGTGTTTGCTTCTTATTCGGAGTCACCTAGTGCAG", "binding signal": "14300 fluorescence intensity (a.u.)"}, {"sequence": "AGCTACCATCCATGATCTTTGTGTTTTGATTGTAAAAGACCGGAGTCACCTAGTGCAG", "binding signal": "11000 fluorescence intensity (a.u.)"}, {"sequence": "TAGCCATCCTGCCTATTGCGACATTCTTACTCTACTTTGGCGGAGTCACCTAGTGCAG", "binding signal": "9030 fluorescence intensity (a.u.)"}, {"sequence": "TTGACTGTGTTTGTTTGTTTACCTATCTATAACACTCTTCCGGAGTCACCTAGTGCAG", "binding signal": "9270 fluorescence intensity (a.u.)"}, {"sequence": "TTTGTAGTAATTCTGTGGTGATTTGGATATCTTGCAACAACGGAGTCACCTAGTGCAG", "binding signal": "10400 fluorescence intensity (a.u.)"}, {"sequence": "TCTCCCAGCTAGTCAGCTACCCCATGGATGTTTAACATTACGGAGTCACCTAGTGCAG", "binding signal": "8450 fluorescence intensity (a.u.)"}, {"sequence": "TCAAATCAGAGAATTTCATTCTATATATGGAGTTTATCCTCGGAGTCACCTAGTGCAG", "binding signal": "9070 fluorescence intensity (a.u.)"}, {"sequence": "TATATATATATATATATATATATATAATCTACTTGGCATGCGGAGTCACCTAGTGCAG", "binding signal": "11400 fluorescence intensity (a.u.)"}, {"sequence": "GCCTAATTAATTCGTCATTAGTACATGTGGGTTACTGTAGCGGAGTCACCTAGTGCAG", "binding signal": "9090 fluorescence intensity (a.u.)"}, {"sequence": "TGGTTGGCAGCTGATTTGGTAATTGCTCTCTCATTCGCTCCGGAGTCACCTAGTGCAG", "binding signal": "13600 fluorescence intensity (a.u.)"}, {"sequence": "ATGGGTTGGATTGGTTTGGATTCTAAGAGAAGACAAATGACGGAGTCACCTAGTGCAG", "binding signal": "8420 fluorescence intensity (a.u.)"}, {"sequence": "CACACAACGCTTCTGGTTCTCACACACCAAGGAGGGGACGCGGAGTCACCTAGTGCAG", "binding signal": "8980 fluorescence intensity (a.u.)"}, {"sequence": "ATCCATCCCTACCTCAGCATCTCTCTCTCTCATTCTCTCTCGGAGTCACCTAGTGCAG", "binding signal": "9940 fluorescence intensity (a.u.)"}, {"sequence": "CTTCTTATTTCCTCTGTTTTTCTTTCGCGTTTTTTATGGTCGGAGTCACCTAGTGCAG", "binding signal": "13600 fluorescence intensity (a.u.)"}, {"sequence": "CTTGTTTTCTGCTTCCTTGCCTTGCTGCAACATTACCAACCGGAGTCACCTAGTGCAG", "binding signal": "9370 fluorescence intensity (a.u.)"}, {"sequence": "ATCGCATCACCGCCGCGCCGCGCCGCCACCGTCCTCTCCGCGGAGTCACCTAGTGCAG", "binding signal": "8830 fluorescence intensity (a.u.)"}, {"sequence": "TCCTTTATTTTTCCCATATCTCTCCTTTTTTTACACTTTTCGGAGTCACCTAGTGCAG", "binding signal": "13600 fluorescence intensity (a.u.)"}, {"sequence": "AGAGGCTAAGGAGAGCAACTCCACTCACTCTGTGTTTCACCGGAGTCACCTAGTGCAG", "binding signal": "8410 fluorescence intensity (a.u.)"}, {"sequence": "GCTCGCCGCCGGCCGCCGCCACCACCTTCCCGTAGCTGTACGGAGTCACCTAGTGCAG", "binding signal": "8300 fluorescence intensity (a.u.)"}, {"sequence": "AAACCGCCATTAATTTACACTAATCACTCCTACTACTCCTCGGAGTCACCTAGTGCAG", "binding signal": "10200 fluorescence intensity (a.u.)"}, {"sequence": "GGCAGTCGTATCTTTCCTTCATCACATTGCACATACAACTCGGAGTCACCTAGTGCAG", "binding signal": "14900 fluorescence intensity (a.u.)"}, {"sequence": "TCATCGATTTTTCAAGTGCTGGTGTATTCTTTTGTGAGTGCGGAGTCACCTAGTGCAG", "binding signal": "8990 fluorescence intensity (a.u.)"}, {"sequence": "AGTAGCGCCCATCTGTTCGCCCATTCCCGAACCCGTCGTCCGGAGTCACCTAGTGCAG", "binding signal": "8710 fluorescence intensity (a.u.)"}, {"sequence": "ACCGCACGTTCCGCAATTAATTCCGTTCCGAATCCCGAGCCGGAGTCACCTAGTGCAG", "binding signal": "8220 fluorescence intensity (a.u.)"}, {"sequence": "ACACTAACACGTGGCGCAATCCTCATCTCTCGCTCCGGATCGGAGTCACCTAGTGCAG", "binding signal": "8120 fluorescence intensity (a.u.)"}, {"sequence": "CGTCGTCTTCATCATCGTCGCCCCGCGATTCCCGTGTTGCCGGAGTCACCTAGTGCAG", "binding signal": "9550 fluorescence intensity (a.u.)"}, {"sequence": "TTGCCACGGCCTTGTTTAGATCCACCCTAAAATTTTTCACCGGAGTCACCTAGTGCAG", "binding signal": "8740 fluorescence intensity (a.u.)"}, {"sequence": "ATTTTTCTCATGGATTGACTTTCTACCTTAGTCAAACACTCGGAGTCACCTAGTGCAG", "binding signal": "9530 fluorescence intensity (a.u.)"}, {"sequence": "GCTGGCGCCTCATTGCCCGTCTGTTCCGCCACCTACCACCCGGAGTCACCTAGTGCAG", "binding signal": "9530 fluorescence intensity (a.u.)"}, {"sequence": "ATAAATTATTAGTACTATTCCATATACTACATTTTCTTCTCGGAGTCACCTAGTGCAG", "binding signal": "8440 fluorescence intensity (a.u.)"}, {"sequence": "GACTTTTCGGTTCTTAAGCTGACTTATAATTAGTCTAAACCGGAGTCACCTAGTGCAG", "binding signal": "8630 fluorescence intensity (a.u.)"}]}]}
